The series has as its system SET-2 cells. Put plainly: Gene expression, gene set enrichment analysis (GSEA). Format: cell-based, human. Conditions: SET-2, 4 h 25 nM. The procedure:
Leukemia cells were plated (12-well) in triplicate at 500,000-800,000 cells per ml and incubated in the presence of vehicle (0.1% DMSO) or CA (25 nM 3 h for K562, MOLM-14 and MV4;11; 10 nM 24 h for MOLM-14; 25 nM 4 h for SET-2, n=3 for each cell line). Cells were then washed twice with cold PBS, and snap frozen. RNA was isolated (RNeasy Plus Microkit, Qiagen or TRIzol, Life Technologies), processed, and, for K562, MOLM-14 and MV4;11, hybridized to the Human U133 Plus 2.0 microarray (Affymetrix). Microarrays were processed with Bioconductor packages affyQCReport for quality control and affy for background correction, summarization, and normalization using rma. […] SET-2 and HCT 116 gene expression was measured by RNA-seq. […] Reads were aligned in two passes, first with rnaStar (v.2.3.0e) then with BWA (v.0.7.5a) for remaining unmapped reads, both using default parameters. Mapped reads were merged and counted using HTSeq (v.0.5.3p3) with -s yes -m intersection-strict. […] Samples were run in a single lane on an Illumina HiSEQ 2000 sequencer with a single read flow cell using 1×50-bp reads and a 6-cycle index read. Reads were mapped to the hg19 reference genome using Tophat2 v.2.0.6 with custom settings including the setting of -library-type fr- firstrand to appropriately account for the stranded nature of the protocol. […]

Turning to Cortistatin A, the “Rank of 4,310” value is on record as 100 (signature: GATA1/GATA2/RUNX1/FLI1/SCL Binding Sites in Mks) and 12 (signature: GATA1/SCL Binding sites in Mks).

The record behind these values is patent US20180369230A1, “TARGETED SELECTION OF PATIENTS FOR TREATMENT WITH SPECIFIC CORTISTATIN DERIVATIVES” (President and Fellows of Harvard College, priority 2015, published 2018).
